Construct, isoform or probe ends are uncertain for at least one entry. A negative result means that nothing was seen under these conditions. At least one verdict rests on a figure or table, not on a statement of the authors. Protein sequences can lack the tags named with them.

The data set concerns the target T1, HY5 (His-HY5) (Solanum lycopersicum (tomato)) (UniProt Q9SM50).
T1 sequence (looked up, limits assumed): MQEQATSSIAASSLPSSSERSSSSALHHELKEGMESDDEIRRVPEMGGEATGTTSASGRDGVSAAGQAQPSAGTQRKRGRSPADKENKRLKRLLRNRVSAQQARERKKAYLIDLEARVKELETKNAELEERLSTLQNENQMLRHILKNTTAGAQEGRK
The experiment in a line: EMSA. As to conditions: Light Shift Chemiluminescent EMSA kit (Thermo 20148) per manufacturer; pH and temperature not stated; recombinant protein; protein details: His (pET-32a); label: 3' biotin.
Consider “TTATCTAGGTTAGACAAAAGCACGTGTAGTTTCAAACGCAGTAGCC (double strand) [BRC1-C WT]”, for which the binding result is reported as “binds”.

In the case of “GATTTGCATAAGATTCTCGTCAACACACGTGTCCACGAGGAAAAAC (double strand) [DET2-BC WT]”, the binding result is on record as “binds”.

For “GATTTGCATAAGATTCTCAAAAACAAAAAAATCCACGAGGAAAAAC (double strand) [DET2-BC mut]”, the binding result is on record as “no binding”.

Regarding “TTCACTTCCAACAATACCGCAAAAAACCACTACCTGCTTCCTTCCT (double strand) [BRC1-A mut]”, the binding result is given as “no binding”.

For the sequence “TTGATAAAATAATACAAGTCATAATTTTGTTCAACGAAAGTTAAA (double strand) [DET2-A WT]”, the binding result is given as “binds”.

For “TTATCTAGGTTAGACAAAAGAAAAAATAGTTTCAAACGCAGTAGCC (double strand) [BRC1-C mut]”, the binding result is given as “no binding”.

Regarding “TTGATAAAATAATACAAAAAATAATTTTGTTCAACGAAAGTTAAA (double strand) [DET2-A mut]”, the binding result is reported as “no binding”.

As for “TTATAGTAAAATTAACTGTGTCACTTTAACTACATGAATAACT (double strand) [DWF-A WT]”, the binding result is given as “binds”.

Take “TTATAGTAAAATTAACTGTAAAACTTTAACTACATGAATAACT (double strand) [DWF-A mut]”: the binding result is “no binding”.

With “TTATATTACATGATTTTTTTAAAAAATACACCAAAGTAGTCATGAAA (double strand) [BRC1-B mut]”, the binding result is on record as “no binding”.

Regarding “TTCACTTCCAACAATACCGCTACGTACCACTACCTGCTTCCTTCCT (double strand) [BRC1-A WT]”, the binding result is reported as “binds”.

Source of the values: PMC10120035, “HY5 functions as a systemic signal by integrating BRC1-dependent hormone signaling in tomato bud outgrowth”.
